PubChem BioAssay AID1159578 – Peter MacCallum Cancer Centre | 2015
Test: 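siRNA pools altering how lymphatic endothelial cells close a scratch wound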 (primary screen). Cells: human lymphatic endothelial cells. Knock-down reagent: siRNA pool against human genes, 40 nM. Duration: 48 h after transfection. Measured: 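High-content imaging of dye-stained cells in a scratch assay measures filled wound area and nuclei per well; duplicate means given as ratio to mock and robust z-score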. Reading the numbers: migration robust z-score: higher = faster migration into the scratch; migration relative to mock: higher = more scratch area covered than mock; nuclei per well: higher = more cells in the well. Call rule: 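Pools averaging fewer than 3300 nuclei are never called; remaining pools count as changed when migration robust z lies outside -2 to 2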. Meaning of the calls: active = migration changed; inactive = no migration change, or too few cells.
Shown is a random part of about 18,000 reagents tested. About 1,030 of all reagents (5.7%) count as active. 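Inactive calls also include pools with fewer than 3300 nuclei, whose migration was not assessed.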 Raw values vary from plate to plate and are shown uncorrected.

The first 2 entries, ahead of the listing:
no.	target gene	migration robust z-score	migration class with cell-count check	migration relative to mock	nuclei per well, duplicate mean	outcome
1	RPF1	0.36	migration z between -2 and 2; enough cells	0.98	6338	inactive
2	ZNF280C	0.32	migration z between -2 and 2; enough cells	0.97	5161	inactive

Main list, repeating the preview:
no.	target gene	migration robust z-score	migration class with cell-count check	migration relative to mock	nuclei per well, duplicate mean	outcome
1	RPF1	0.36	migration z between -2 and 2; enough cells	0.98	6338	inactive
2	ZNF280C	0.32	migration z between -2 and 2; enough cells	0.97	5161	inactive
3	ANKK1	-0.88	migration z between -2 and 2; enough cells	0.64	5475	inactive
4	SERPINB6	-0.47	migration z between -2 and 2; enough cells	0.72	5767	inactive
5	SLC39A13	0.62	migration z between -2 and 2; enough cells	1.05	4542	inactive
6	PTCH1	-0.2	migration z between -2 and 2; enough cells	0.76	4550	inactive
7	STK4	-0.26	migration z between -2 and 2; enough cells	0.76	4825	inactive
8	LUC7L2	0.52	migration z between -2 and 2; enough cells	1.02	5654	inactive
9	H2AC19	0.46	migration z between -2 and 2; enough cells	1.01	5376	inactive
10	KCNG3	0.57	migration z between -2 and 2; enough cells	0.92	4947	inactive
11	H2AC18	-0.04	migration z between -2 and 2; enough cells	0.88	5149	inactive
12	CEP20	0.49	migration z between -2 and 2; enough cells	1.02	6652	inactive
13	RAB11FIP5	0.04	migration z between -2 and 2; enough cells	0.89	5310	inactive
14	IL6R	-1.76	under 3300 nuclei; migration not judged	0.46	3270	inactive
15	GPR162	-0.26	migration z between -2 and 2; enough cells	0.75	5841	inactive
16	KCNK12	-0.9	migration z between -2 and 2; enough cells	0.63	4927	inactive
17	SMO	0.42	migration z between -2 and 2; enough cells	0.88	5730	inactive
18	LRRC36	-0.28	migration z between -2 and 2; enough cells	0.81	6081	inactive
19	PRLR	0.02	migration z between -2 and 2; enough cells	0.81	5950	inactive
20	BLM	2.24	migration z above 2; enough cells	1.23	5847	active
21	HMGCR	0.34	migration z between -2 and 2; enough cells	0.87	5864	inactive
22	SMG6	0	migration z between -2 and 2; enough cells	0.88	5145	inactive
23	FAM76B	-1.64	migration z between -2 and 2; enough cells	0.46	5724	inactive
24	NIPSNAP1	-0.48	migration z between -2 and 2; enough cells	0.76	5654	inactive
25	HABP2	-0.05	migration z between -2 and 2; enough cells	0.8	5567	inactive
26	UGDH	0.28	migration z between -2 and 2; enough cells	0.86	6411	inactive
27	OR52W1	-0.62	migration z between -2 and 2; enough cells	0.73	5248	inactive
28	BLVRB	-1.2	migration z between -2 and 2; enough cells	0.58	3868	inactive
29	MOGAT2	-0.13	migration z between -2 and 2; enough cells	0.85	5908	inactive
30	SPIRE2	0.38	migration z between -2 and 2; enough cells	0.98	5248	inactive
31	PSG11	0.46	migration z between -2 and 2; enough cells	1	6190	inactive
32	CTSS	-0.78	migration z between -2 and 2; enough cells	0.65	5488	inactive
33	JAM3	0.52	migration z between -2 and 2; enough cells	1.01	6390	inactive
34	IYD	0.88	migration z between -2 and 2; enough cells	0.98	5980	inactive
35	IMMP2L	0.44	migration z between -2 and 2; enough cells	0.89	6076	inactive
36	TYMP	-1.82	migration z between -2 and 2; enough cells	0.46	5832	inactive
37	GLYAT	-0.08	migration z between -2 and 2; enough cells	0.79	5856	inactive
38	HMCES	0.66	migration z between -2 and 2; enough cells	1.06	4884	inactive
39	GP9	-1.63	migration z between -2 and 2; enough cells	0.46	3982	inactive
40	PA2G4	0.36	migration z between -2 and 2; enough cells	0.88	5094	inactive
41	PLXNA3	0	migration z between -2 and 2; enough cells	0.8	5943	inactive
42	EFCAB6	0.51	migration z between -2 and 2; enough cells	1.02	5646	inactive
43	POU5F2	0.2	migration z between -2 and 2; enough cells	0.94	4815	inactive
44	TMEM237	-0.2	migration z between -2 and 2; enough cells	0.84	4926	inactive
45	CREB3L4	1.09	migration z between -2 and 2; enough cells	1.17	5659	inactive
46	UBXN2B	-0.03	migration z between -2 and 2; enough cells	0.88	5522	inactive
47	SERPINI2	-1.5	migration z between -2 and 2; enough cells	0.52	5078	inactive
48	VSIG8	2.17	migration z above 2; enough cells	1.45	6190	active
49	ZNF431	1.58	migration z between -2 and 2; enough cells	1.29	5953	inactive
50	CFDP1	0.4	migration z between -2 and 2; enough cells	0.99	4933	inactive
51	HRH4	0.7	migration z between -2 and 2; enough cells	0.94	6210	inactive
52	INSYN2A	-1.06	migration z between -2 and 2; enough cells	0.61	5568	inactive
53	HDAC11	0.52	migration z between -2 and 2; enough cells	0.9	5992	inactive
54	TRPC6	-0.29	migration z between -2 and 2; enough cells	0.75	5321	inactive
55	H4C14	-0.15	migration z between -2 and 2; enough cells	0.85	5284	inactive
56	KCTD4	0.13	migration z between -2 and 2; enough cells	0.83	5618	inactive
57	ZBTB24	0.09	migration z between -2 and 2; enough cells	0.9	5384	inactive
